No constants are given. Whether binding was seen depends on the method and setting. For some of these results: Sequences can lack the tags named with a protein.
Legend:
GST-Arf1 = target: T1, GST-Arf1 (UniProt P11076); test: pull-down; pulldown of Sec7ΔC with a great excess of GST-GTPase bound to GDP or GMPPNP; SDS-PAGE, Coomassie staining; both purified
T1 sequence: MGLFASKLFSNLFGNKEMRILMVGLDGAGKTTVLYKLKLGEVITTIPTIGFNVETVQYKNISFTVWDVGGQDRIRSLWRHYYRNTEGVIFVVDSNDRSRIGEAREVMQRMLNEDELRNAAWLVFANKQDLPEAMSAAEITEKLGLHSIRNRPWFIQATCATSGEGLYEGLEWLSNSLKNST

GST-Arl1 = target: T2, GST-Arl1 (UniProt P38116); test: as above
T2 sequence: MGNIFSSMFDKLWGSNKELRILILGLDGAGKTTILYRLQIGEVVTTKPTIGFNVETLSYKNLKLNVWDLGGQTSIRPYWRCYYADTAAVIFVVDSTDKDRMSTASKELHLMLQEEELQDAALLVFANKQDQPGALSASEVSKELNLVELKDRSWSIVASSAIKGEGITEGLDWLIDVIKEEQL

membrane-bound Arl1 = target: T3, membrane-bound Arl1 (UniProt P38116); test: co-sedimentation; liposome pelleting; Arf1 or Arl1 bound to liposomes after EDTA-mediated loading with the indicated nucleotide; fraction recovered relative to liposome-free pelleting; both purified
T3 sequence: T2 sequence

myristoylated Arf1 = target: T4, myristoylated Arf1 (UniProt P11076); test: as above
T4 sequence (chain, myristoylated (coexpressed with NMT1)): T1 sequence

Measured: binding

B1: S. cerevisiae Sec7ΔC (residues 203-1017) (domain or fragment, UniProt P11075 203-1017, looked up)
chain: PRSTHTRNISLSSNGSNTNSTIILVKTTLETILNDKDIKKNSNAQKAIERTLQKFKEFDPQTTNNPHYVDSILVFEALRASCRTKSSKVQSLALDCLSKLFSFRSLDETLLVNPPDSLASNDQRQDAADGITPPPKQKIIDAAIDTISDCFQGEGTDDRVELQIVRALSSCILEEDSSSLCHGASLLKAIRTIYNVFVFSLNPSNQGIAQATLTQIISSVYDKIDLKQSTSSAVSLSTKNHQQQSAIELSEASENAETPAPLTLENMDKLNDDEERLMDAQQPDSIAITNQDLAVKDAFLVFRVMAKICAKPLETELDMRSHAVRSKLLSLHIIYSIIKDHIDVFLSHNIFLPGKERVCFIDSIRQYLRLVLSRNAASPLAPVFEVTLEIMWLLIANLRADFVKEIPVFLTEIYFPISELTTSTSQQKRYFLSVIQRICNDPRTLVEFYLNYDCNPGMPNVMEITVDYLTRLALTRVEITQTQRSYYDEQISKSLSTYNFSQLPLLTSSNLSSSPDVGQVNLLFPLDFALKMVSLNCIVSVLRSLSSWAHKALNPNTHTANKVLLNTTSSARQESRSSLSNDVRSSIMTSNDDFKPTYEDEESRSLSSQNIDADDPTQFENLKLRKTALSECIAIFNNKPKKAIPVLIKKGFLKDDSPISIAKWLLETEGLDMAAVGDYLGEGDDKNIAIMHAFVDEFDFTGMSIVDALRSFLQSFRLPGEGQKIDRFMLKFAERFVDQNPGVFSKADTAYVLSYSLIMLNTDLHSSQIKNKMSLQEFLENNEGIDNGRDLPRDFLEGLFNEIANNEIKLISEQH
notes: Sec7 of S. cerevisiae, residues 203-1017 (DCB/HUS and GEF domains); also called Sec7(203-1017); construct lacking the HDS1-4 domains with the GEF domain; source: E. coli, purified (Ni-NTA, MonoQ, Superdex 200)
no binding: all assays above
